# The whole screen tested about 400,000 compounds, of which about 13,000 (3.2%) were called active. The inconclusive results got no clear call from the source; some entries with a clear call stand among them for comparison. The call rests on the fitted dose curve; in most records, active means well fitted cell-killing curve with a large enough effect; inconclusive means small, poorly fitted or top-dose-only effect, or effect the other way; inactive means flat fitted curve, though single readings scatter. Potencies beside an inconclusive call are fits to weak or partial responses and may not hold up.
# Experiment: qHTS assay for MDR1-selective chemotherapeutics: Primary screen using the drug-selected MDR subline cells KB-V1; further: nearly all actives have a fitted effect of over 60% in size
# Conditions: KB-V1 MDR cells viability, CellTiter-Glo, 72 h; series mostly up to 46.1 µM
# Procedure, shortened: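 Cytotoxicity toward P-gp-expressing KB-V1 cells was determined as loss of CellTiter-Glo luminescence after 72 h at 37 degrees C. Compounds were tested in quantitative HTS format across a concentration range, with curves fitted to normalized data.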
# Potency means the concentration at half of the fitted maximal effect.
row,Compound,Potency
1,C(=C\c1nc(N2CCCCCC2)c2ccccc2n1)/c1ccccc1,active: 18.4 µM
2,Cc1cc(C)c2sc(NNC(=O)c3ccc(S(=O)(=O)N4CCc5ccccc5C4)cc3)nc2c1,inactive
3,CCOC(=O)CC(=O)CSc1nc2ccccc2c(=O)n1-c1ccc(C(=O)N2CCOCC2)cc1,"inconclusive: 29.1 µM [cytotoxic, single point]"
4,Cc1ccc(CNC(=O)Cn2cc(C(=O)c3ccc(F)cc3)c(=O)c3ccc(C)nc32)cc1,inactive
5,Cc1onc(-c2ccccc2Cl)c1C(=O)Nc1ccc(-c2cn3cccnc3n2)cc1,"inconclusive: 7.31 µM [cytotoxic, partial curve]"
6,CCOC(=O)N/N=C\c1ccc(OC/C=C/c2ccccc2)cc1,inactive
7,Cc1ccc(C(=O)NNc2cc(N3CCCC3)nc(N3CCCC3)n2)cc1,active: 1.46 µM
8,O=C(CCN1CCN(S(=O)(=O)c2ccc(Cl)cc2)CC1)Nc1ccccc1F,"inconclusive: 8.2 µM [cytotoxic, partial curve, poor fit]"
9,O=C(Nc1ccc(S(=O)(=O)N2CCOCC2)cc1)C1CC(=O)N(c2ccc(F)cc2)C1 (centres undefined),"inconclusive: 4.11 µM [rising, full curve]"
10,O=C(Nc1cccc(S(=O)(=O)N2CCCCC2)c1)Nc1ccc(Cl)cc1Cl,"inconclusive: 18.4 µM [cytotoxic, single point]"
11,COc1ccc(NC(=O)N2CCC(c3nc(-c4cccs4)no3)CC2)cc1,active: 6.51 µM
12,O=C(NCC(F)(F)F)c1ccc2sc([C@@H]3O[C@H](CO)[C@H](O)[C@H](O)[C@H]3O)nc2c1,inactive
13,COC(=O)c1ccc(OCC(O)CN2C(=O)c3ccccc3S2(=O)=O)cc1 (centres undefined),"inconclusive: 29.1 µM [cytotoxic, single point]"
14,COc1ccc(C(=O)NC(=S)Nc2cccc3nc(C)ccc23)cc1OC,"inconclusive: 20.6 µM [cytotoxic, single point]"
15,COc1ccc(/C=N\NC(=O)c2cc(O)c(O)c(O)c2)cc1CN1CCN(c2ccc(F)cc2)CC1,"inconclusive: 0.731 µM [rising, full curve]"
16,COCCN(CCOC)S(=O)(=O)c1ccc(C(=O)Nc2nnc(C3CC3)o2)cc1,"inconclusive: 16.4 µM [cytotoxic, single point]"
17,COc1cccc(-c2nn(-c3ccc(F)cc3)cc2C(=O)NCC2CCCO2)c1 (centres undefined),"inconclusive: 7.31 µM [cytotoxic, partial curve]"
18,CCc1nc(Nc2ccccc2)c2oc3ccccc3c2n1,"inconclusive: 11.2 µM [cytotoxic, partial curve, poor fit]"
19,Cc1ccc(N(C(=O)c2snc(C(N)=O)c2N)C(C(=O)NCCC(C)C)c2ccco2)cc1 (centres undefined),"inconclusive: 32.6 µM [cytotoxic, single point]"
20,CC(=O)N1CCc2cc(S(=O)(=O)Nc3ccc(C)cc3)ccc21,"inconclusive: 29.1 µM [cytotoxic, single point]"
21,COc1ccc2cc(C3(C)NC(=O)N(CC(=O)N4CCCCC4)C3=O)ccc2c1 (centres undefined),inactive
22,COc1ccc(C(NC(=O)C2CCN(CCCOc3ccccc3)CC2)c2cccs2)cc1 (centres undefined),"inconclusive: 20.6 µM [cytotoxic, partial curve, poor fit]"

# A few values from the list.
# Potency with COc1ccc(C(=O)NC(=S)Nc2cccc3nc(C)ccc23)cc1OC reads inconclusive: 20.6 µM [cytotoxic, single point]
# Potency with O=C(Nc1ccc(S(=O)(=O)N2CCOCC2)cc1)C1CC(=O)N(c2ccc(F)cc2)C1 (centres undefined) reads inconclusive: 4.11 µM [rising, full curve]

# Carrying on.

row,Compound,Potency
1,O=C(OCc1ccccc1)/C(=C/c1ccc(Cl)cc1)NC(=O)c1ccccc1Cl,inactive
2,CCn1ccc2cc(S(=O)(=O)N3CCC(C(=O)NCCc4ccc(C)cc4)CC3)ccc21,inactive
3,CC(C)c1cccc(-c2ccc3c(c2)S(=O)(=O)c2cccc(C(=O)NCc4ccco4)c2C3=O)c1,"inconclusive: 23.1 µM [cytotoxic, single point]"
4,CCSc1ccc(-c2cc(NC=O)c3ncc(-c4cccc(C(=O)N(C)C)c4)n3c2)cc1,"inconclusive: 18.4 µM [cytotoxic, single point]"
5,Cc1ccc(NC(=S)NC(NC(=O)Cc2cccc3ccccc23)C(Cl)(Cl)Cl)cc1 (centres undefined),"inconclusive: 13 µM [cytotoxic, partial curve]"
6,CCCCN(CCCC)C(=O)CN(C)S(=O)(=O)c1ccc2c(c1)n(C)c(=O)c(=O)n2C,active: 11.6 µM
7,CC(c1cccs1)N(Cc1ccco1)C(=O)Nc1ccc(Cl)c(Cl)c1 (centres undefined),active: 16.4 µM
8,Cc1onc(-c2c(Cl)cccc2Cl)c1C(=O)c1c[nH]c(C(=O)NCC2CCCO2)c1 (centres undefined),"inconclusive: 23.1 µM [cytotoxic, single point]"
9,O=C1Nc2ccc([N+](=O)[O-])cc2OC1CCN1CCN(Cc2ccccc2)CC1 (centres undefined),inactive
10,C#CC1(NC(=O)NC(C)C)CCCCC1,inactive
11,Cc1cc(NC(=O)CN(C)C)c([N+](=O)[O-])cc1C,inactive
12,CCOc1ccc2nc(SCC(=O)NC3CCCCC3)[nH]c2c1,active: 16.4 µM
13,CC1=C(c2ccc(C)cc2)S(=O)(=O)N(Cc2ccc(C(=O)Nc3ccc(F)cc3C)cc2)C1=O,"inconclusive: 29.1 µM [cytotoxic, single point]"
14,COc1ccccc1NC(=O)CN1C(=O)C2(SCC(=O)N2c2ccc(C)c(C)c2)c2ccccc21 (centres undefined),"inconclusive: 2.91 µM [cytotoxic, partial curve, poor fit]"
15,Cc1ccc(N(CC(=O)Nc2cc(C)cc(C)c2)S(=O)(=O)c2cccc3nonc23)cc1,"inconclusive: 29.1 µM [cytotoxic, single point]"
16,Cc1ccc(C)c(NC(=O)c2cnn3ccccc23)c1,inactive
17,CCC(NC(=S)NCc1ccc(F)cc1)c1ccccc1 (centres undefined),inactive
18,COC(=O)c1cccc(NC(=O)c2cc(OC)c(OC)c(OC)c2Br)c1,"inconclusive: 16.4 µM [cytotoxic, single point]"
19,CC(C)NC(=O)C(=O)NCc1ccccn1,"inconclusive: 23.1 µM [rising, single point]"
20,COc1cccc(NC(=O)CSc2nnc(CNC(=O)c3ccccc3F)o2)c1,"inconclusive: 29.1 µM [rising, single point]"
21,Nc1ccccc1C(=O)Nc1cccc2ccccc12,inactive
22,CC(=O)c1ccc(NC(=O)C(=O)c2cn(CC(=O)N3CCCCC3)c3ccccc23)cc1,inactive
